For 13 targets, log2 fold change results are on record in the supplement of paper PMC10849652.

Chains of the proteins cited; added tags and fusions are not shown. Lines headed by an entry give the natural chain unless they say otherwise; changes in a name come on top.
UniProt Q9BTK6, whole entry, looked up: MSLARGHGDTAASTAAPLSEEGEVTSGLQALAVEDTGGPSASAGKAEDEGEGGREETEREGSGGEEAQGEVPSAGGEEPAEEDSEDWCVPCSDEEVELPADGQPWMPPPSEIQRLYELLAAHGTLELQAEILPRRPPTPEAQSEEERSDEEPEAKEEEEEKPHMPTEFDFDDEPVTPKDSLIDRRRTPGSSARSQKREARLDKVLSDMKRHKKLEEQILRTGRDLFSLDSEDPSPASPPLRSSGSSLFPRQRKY
UniProt Q96E52: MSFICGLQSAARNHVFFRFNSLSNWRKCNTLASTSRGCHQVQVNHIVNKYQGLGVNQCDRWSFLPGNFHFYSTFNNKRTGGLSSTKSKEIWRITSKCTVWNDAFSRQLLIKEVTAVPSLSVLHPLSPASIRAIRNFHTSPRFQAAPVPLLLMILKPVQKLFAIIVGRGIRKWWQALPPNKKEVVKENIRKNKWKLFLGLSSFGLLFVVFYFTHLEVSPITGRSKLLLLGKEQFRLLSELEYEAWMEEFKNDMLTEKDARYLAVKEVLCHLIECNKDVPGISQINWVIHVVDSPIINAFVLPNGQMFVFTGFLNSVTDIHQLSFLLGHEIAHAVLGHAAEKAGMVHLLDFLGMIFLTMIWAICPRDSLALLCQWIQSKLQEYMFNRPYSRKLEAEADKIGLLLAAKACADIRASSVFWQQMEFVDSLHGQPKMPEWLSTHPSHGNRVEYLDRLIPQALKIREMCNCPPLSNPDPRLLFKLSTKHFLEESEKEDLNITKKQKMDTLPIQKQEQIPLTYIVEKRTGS
UniProt Q86WC4: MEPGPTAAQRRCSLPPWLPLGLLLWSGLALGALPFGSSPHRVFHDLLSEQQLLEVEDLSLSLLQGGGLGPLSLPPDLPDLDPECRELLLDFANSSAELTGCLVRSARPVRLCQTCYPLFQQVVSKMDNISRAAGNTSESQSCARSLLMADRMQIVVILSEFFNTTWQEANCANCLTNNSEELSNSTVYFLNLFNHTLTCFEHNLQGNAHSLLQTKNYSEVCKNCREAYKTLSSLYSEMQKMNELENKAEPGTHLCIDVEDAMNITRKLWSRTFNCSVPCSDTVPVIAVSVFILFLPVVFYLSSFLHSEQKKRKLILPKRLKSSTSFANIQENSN
UniProt Q86W56: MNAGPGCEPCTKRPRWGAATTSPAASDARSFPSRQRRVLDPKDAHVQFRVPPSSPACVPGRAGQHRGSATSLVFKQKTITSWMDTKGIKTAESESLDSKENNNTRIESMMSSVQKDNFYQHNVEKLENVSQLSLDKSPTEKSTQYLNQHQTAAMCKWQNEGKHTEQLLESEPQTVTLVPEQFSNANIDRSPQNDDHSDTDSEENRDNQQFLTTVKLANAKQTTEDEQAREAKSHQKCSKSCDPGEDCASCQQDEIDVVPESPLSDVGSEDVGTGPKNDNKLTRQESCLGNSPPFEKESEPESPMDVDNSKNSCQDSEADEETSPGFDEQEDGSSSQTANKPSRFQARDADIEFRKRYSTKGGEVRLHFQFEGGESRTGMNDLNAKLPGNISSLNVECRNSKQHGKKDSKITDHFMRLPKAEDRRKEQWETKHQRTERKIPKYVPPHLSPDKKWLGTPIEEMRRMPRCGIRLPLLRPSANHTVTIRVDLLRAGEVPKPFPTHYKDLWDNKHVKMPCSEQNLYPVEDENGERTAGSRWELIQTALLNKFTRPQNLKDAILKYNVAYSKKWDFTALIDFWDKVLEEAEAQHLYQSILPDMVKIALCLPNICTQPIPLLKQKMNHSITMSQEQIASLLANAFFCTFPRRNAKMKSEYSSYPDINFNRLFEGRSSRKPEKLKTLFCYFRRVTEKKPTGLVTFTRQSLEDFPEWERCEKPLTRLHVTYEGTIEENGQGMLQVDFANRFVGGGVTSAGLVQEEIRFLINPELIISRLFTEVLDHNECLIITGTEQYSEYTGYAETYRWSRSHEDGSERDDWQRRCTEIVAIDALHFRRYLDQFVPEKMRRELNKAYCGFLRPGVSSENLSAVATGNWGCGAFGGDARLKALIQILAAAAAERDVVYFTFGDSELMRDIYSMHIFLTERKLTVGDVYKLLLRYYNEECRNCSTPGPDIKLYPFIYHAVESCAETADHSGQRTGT
UniProt Q99497, whole entry, looked up: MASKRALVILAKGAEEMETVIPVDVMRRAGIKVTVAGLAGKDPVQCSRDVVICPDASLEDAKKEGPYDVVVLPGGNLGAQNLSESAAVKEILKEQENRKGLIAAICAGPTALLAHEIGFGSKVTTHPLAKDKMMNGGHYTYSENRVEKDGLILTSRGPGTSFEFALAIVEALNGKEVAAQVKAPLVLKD
UniProt Q96HP4: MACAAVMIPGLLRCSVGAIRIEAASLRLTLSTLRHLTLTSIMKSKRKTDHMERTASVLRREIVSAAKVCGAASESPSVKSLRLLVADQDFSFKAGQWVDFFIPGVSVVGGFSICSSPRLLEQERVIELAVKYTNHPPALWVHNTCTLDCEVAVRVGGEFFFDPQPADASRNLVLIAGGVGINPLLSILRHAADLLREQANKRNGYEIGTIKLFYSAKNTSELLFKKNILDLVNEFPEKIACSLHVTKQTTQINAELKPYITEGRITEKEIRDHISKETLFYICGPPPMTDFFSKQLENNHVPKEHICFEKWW
UniProt Q9BY11: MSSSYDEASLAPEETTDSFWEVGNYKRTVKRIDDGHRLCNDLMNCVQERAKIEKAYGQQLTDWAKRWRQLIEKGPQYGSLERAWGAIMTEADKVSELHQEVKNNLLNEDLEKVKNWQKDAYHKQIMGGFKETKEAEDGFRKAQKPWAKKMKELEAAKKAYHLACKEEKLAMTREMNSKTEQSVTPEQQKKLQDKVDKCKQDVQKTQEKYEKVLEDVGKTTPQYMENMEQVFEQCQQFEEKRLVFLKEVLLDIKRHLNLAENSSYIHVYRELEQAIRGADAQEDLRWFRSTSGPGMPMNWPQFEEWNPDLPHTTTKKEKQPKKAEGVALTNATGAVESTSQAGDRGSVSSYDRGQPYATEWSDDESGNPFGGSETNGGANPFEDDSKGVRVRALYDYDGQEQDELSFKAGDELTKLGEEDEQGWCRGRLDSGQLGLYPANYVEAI
UniProt O95747, whole entry, looked up: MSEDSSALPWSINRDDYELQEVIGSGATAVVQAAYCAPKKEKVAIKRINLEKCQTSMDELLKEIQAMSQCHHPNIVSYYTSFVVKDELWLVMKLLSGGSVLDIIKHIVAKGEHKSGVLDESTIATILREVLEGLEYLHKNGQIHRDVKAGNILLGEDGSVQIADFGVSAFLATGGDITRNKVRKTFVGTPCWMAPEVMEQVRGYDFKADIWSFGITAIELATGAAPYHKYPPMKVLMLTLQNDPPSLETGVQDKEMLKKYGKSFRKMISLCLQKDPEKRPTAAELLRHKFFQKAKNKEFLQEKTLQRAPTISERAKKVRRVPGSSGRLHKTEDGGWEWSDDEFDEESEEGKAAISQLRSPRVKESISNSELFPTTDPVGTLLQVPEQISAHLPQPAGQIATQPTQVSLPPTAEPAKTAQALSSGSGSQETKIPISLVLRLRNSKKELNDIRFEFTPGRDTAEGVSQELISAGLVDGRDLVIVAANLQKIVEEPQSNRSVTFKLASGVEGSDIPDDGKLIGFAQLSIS
UniProt Q01968: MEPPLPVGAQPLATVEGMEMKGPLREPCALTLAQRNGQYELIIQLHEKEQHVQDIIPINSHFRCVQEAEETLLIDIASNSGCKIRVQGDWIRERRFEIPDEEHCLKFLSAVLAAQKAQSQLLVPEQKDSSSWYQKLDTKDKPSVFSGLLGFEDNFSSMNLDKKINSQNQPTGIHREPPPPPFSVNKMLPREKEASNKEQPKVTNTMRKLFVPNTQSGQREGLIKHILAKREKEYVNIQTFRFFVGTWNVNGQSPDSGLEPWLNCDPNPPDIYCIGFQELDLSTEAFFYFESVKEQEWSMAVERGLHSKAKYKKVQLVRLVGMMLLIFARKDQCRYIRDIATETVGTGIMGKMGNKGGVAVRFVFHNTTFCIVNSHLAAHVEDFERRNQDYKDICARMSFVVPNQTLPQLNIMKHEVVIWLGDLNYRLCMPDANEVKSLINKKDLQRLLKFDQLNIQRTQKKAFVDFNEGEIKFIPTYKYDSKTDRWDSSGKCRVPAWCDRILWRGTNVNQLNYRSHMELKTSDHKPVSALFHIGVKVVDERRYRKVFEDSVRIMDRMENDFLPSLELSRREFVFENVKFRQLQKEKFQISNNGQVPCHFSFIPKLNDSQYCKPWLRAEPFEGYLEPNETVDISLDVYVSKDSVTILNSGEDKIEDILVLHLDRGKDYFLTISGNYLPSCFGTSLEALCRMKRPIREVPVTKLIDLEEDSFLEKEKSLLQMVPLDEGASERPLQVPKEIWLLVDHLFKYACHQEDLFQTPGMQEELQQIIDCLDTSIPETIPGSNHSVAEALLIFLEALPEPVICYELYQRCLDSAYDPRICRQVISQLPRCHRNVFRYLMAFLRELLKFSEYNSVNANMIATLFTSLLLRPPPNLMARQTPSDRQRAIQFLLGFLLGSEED
UniProt Q32P28: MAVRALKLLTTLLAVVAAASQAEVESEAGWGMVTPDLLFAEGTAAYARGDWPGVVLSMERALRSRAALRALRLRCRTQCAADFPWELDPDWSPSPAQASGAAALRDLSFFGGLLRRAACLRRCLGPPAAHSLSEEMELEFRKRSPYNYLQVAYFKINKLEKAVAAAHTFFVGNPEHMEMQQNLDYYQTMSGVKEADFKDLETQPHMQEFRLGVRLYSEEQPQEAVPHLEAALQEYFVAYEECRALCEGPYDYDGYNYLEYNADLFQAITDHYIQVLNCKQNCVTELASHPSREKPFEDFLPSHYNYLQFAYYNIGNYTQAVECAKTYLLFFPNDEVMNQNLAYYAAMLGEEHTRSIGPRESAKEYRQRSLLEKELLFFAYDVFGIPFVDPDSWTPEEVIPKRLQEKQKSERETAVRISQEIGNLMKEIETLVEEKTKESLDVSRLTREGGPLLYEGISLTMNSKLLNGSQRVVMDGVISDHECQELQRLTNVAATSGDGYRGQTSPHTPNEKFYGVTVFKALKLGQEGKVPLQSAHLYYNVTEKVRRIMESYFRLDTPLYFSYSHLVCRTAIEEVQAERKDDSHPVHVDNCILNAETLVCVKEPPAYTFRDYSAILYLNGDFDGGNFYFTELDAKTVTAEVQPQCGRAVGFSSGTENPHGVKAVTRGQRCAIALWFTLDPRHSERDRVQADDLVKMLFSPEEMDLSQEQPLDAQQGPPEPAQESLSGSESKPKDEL
UniProt Q9BXB4: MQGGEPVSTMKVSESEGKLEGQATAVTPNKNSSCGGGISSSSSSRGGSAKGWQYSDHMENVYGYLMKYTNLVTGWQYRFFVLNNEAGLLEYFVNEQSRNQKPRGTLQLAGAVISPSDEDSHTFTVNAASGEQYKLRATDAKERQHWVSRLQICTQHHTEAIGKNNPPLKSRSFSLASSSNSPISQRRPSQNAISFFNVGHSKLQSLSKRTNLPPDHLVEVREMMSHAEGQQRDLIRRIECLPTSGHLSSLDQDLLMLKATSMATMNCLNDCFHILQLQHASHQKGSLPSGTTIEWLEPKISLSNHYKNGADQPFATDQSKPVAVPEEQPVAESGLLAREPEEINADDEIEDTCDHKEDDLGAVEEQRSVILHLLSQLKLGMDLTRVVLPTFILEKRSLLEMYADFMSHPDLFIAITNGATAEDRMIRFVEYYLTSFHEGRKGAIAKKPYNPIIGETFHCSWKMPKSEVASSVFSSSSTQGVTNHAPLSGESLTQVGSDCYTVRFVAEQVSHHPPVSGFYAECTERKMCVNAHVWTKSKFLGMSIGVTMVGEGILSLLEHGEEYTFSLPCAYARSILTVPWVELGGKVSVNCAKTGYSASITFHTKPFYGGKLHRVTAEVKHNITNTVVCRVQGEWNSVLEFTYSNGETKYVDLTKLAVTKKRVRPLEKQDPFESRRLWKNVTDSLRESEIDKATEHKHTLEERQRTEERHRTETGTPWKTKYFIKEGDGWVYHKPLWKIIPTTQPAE
UniProt Q9UNF0: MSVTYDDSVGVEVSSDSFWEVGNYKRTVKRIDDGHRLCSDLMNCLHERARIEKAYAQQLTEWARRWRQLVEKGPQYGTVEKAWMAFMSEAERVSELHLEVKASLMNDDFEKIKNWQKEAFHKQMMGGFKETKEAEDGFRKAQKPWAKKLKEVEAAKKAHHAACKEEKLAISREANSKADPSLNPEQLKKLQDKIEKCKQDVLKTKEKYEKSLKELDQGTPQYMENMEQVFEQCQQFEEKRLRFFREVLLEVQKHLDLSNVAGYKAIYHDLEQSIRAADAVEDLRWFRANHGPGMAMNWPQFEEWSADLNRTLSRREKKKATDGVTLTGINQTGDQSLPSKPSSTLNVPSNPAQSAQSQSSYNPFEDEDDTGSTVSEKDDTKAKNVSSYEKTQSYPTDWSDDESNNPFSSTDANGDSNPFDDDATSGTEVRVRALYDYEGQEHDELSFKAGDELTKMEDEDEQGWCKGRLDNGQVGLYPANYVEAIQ

The list shows a part of the results.

Common to all, as to test: log2 fold change, soluble protein after heating vs DMSO (PISA); higher = thermal stabilisation; K562 lysate, 10 uM; active = over 0.2 and 3.5 SD of the protein, either way, in both replicates (recomputed)
Compound in assay [1]: NCC(=O)Nc1ccc(-n2nc(C(F)(F)F)cc2-c2ccc3c(ccc4ccccc43)c2)cc1
A digest of the protocol:
(§1)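 The values are log-two fold changes in thermal stability compared with solvent controls and come from duplicates. They were obtained by TMTpro 16plex LC-MS/MS, with channel sums equalised, on the supernatant after 21,000xg for 90 min. That supernatant came from crude K562 extract at 1 mg/mL protein treated with 10 μM compound for 30 min, heated for 3 min across 48°C-58°C, pooled and brought to 0.5% NP-40 at 4°C.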

Compound in the next assay: O=C(CCCCCCC(=O)Nc1ccccc1)NO [vorinostat]
The essentials: as §1

Compound in the next assay: O=C(O)c1ccc2c(c1)nc(Nc1cccc(Cl)c1)c1ccncc12 [silmitasertib]
A digest of the protocol: as §1

Compound in assay [2]: O=C1NC(=O)C(c2cnc3ccccn23)=C1c1cn2c3c(cc(F)cc13)CN(C(=O)N1CCCCC1)CC2
A digest of the protocol:
as §1

Compound in another assay: c1cn2cc(-c3ccc4cn[nH]c4c3)nc(Nc3ccc(N4CCOCC4)cc3)c2n1 [entospletinib]
The essentials: as §1

As for PAGR1 (UniProt Q9BTK6), the log2 fold change is inactive: 0.016 in assay [1]; inactive: 0.139 in the assay with vorinostat; inactive: 0.106 with silmitasertib; inactive: 0 in assay [2]; inactive: 0.024 with entospletinib.

Consider OMA1 (UniProt Q96E52), for which the log2 fold change is inactive: 0.032 in assay [1]; inactive: 0.122 with vorinostat; inactive: 0.018 in the assay with silmitasertib; inactive: -0.008 in assay [2]; inactive: 0.001 with entospletinib.

For OSTM1 (UniProt Q86WC4), the log2 fold change in assay [1] was inactive: -0.09; in the assay with vorinostat, inactive: 0.175; in the assay with silmitasertib it was inactive: -0.015; in assay [2] it was inactive: -0.032; with entospletinib, inactive: -0.016.

With PARG (UniProt Q86W56), the log2 fold change was inactive: 0.006 in assay [1]; active: -0.363 with vorinostat; inactive: -0.035 in the assay with silmitasertib; inactive: 0.018 in assay [2]; inactive: 0.006 with entospletinib.

For the target PARK7 (UniProt Q99497), the log2 fold change in assay [1] was inactive: 0.022; with vorinostat, inactive: 0.163; with silmitasertib, inactive: -0.01; in assay [2] it was inactive: 0.026; with entospletinib, inactive: 0.005.

For the target OXNAD1 (UniProt Q96HP4), the log2 fold change in assay [1] was inactive: 0.036; with vorinostat, inactive: -0.279; in the assay with silmitasertib, inactive: 0.012; in assay [2] it was inactive: -0.016; with entospletinib, inactive: 0.002.

As to PAF1 (UniProt Q8N7H5), the log2 fold change in assay [1] was inactive: 0.007; with vorinostat, inactive: -0.013; with silmitasertib, inactive: 0.004; in assay [2], inactive: 0.015; in the assay with entospletinib it was inactive: 0.009.

As to PACSIN1 (UniProt Q9BY11), the log2 fold change in assay [1] was inactive: -0.062; in the assay with vorinostat it was inactive: 0.133; with silmitasertib, inactive: 0.041; with entospletinib, inactive: 0.001.

For OXSR1 (UniProt O95747), the log2 fold change is inactive: -0.007 in assay [1]; inactive: -0.173 in the assay with vorinostat; inactive: 0.04 with silmitasertib; inactive: -0.005 in assay [2]; inactive: 0.008 in the assay with entospletinib.

OCRL (UniProt Q01968): the log2 fold change in assay [1] is inactive: 0.134; with vorinostat, active: -0.43; in the assay with silmitasertib it was inactive: 0.032; in assay [2] it was inactive: 0.019; in the assay with entospletinib, inactive: -0.032.

Take P3H1 (UniProt Q32P28): the log2 fold change was inactive: -0.019 in assay [1]; inactive: 0.052 in the assay with vorinostat; inactive: 0.021 with silmitasertib; inactive: 0.01 in assay [2]; inactive: 0 with entospletinib.

As for OSBPL11 (UniProt Q9BXB4), the log2 fold change is inactive: 0.025 in assay [1]; inactive: 0.06 in the assay with vorinostat; inactive: 0.102 with silmitasertib; inactive: -0.008 in assay [2]; inactive: 0.008 with entospletinib.

For PACSIN2 (UniProt Q9UNF0), the log2 fold change in assay [1] was inactive: 0; with vorinostat, inactive: 0.013; with silmitasertib, inactive: 0.003; in assay [2], inactive: -0.005; in the assay with entospletinib, inactive: 0.014.
